We go through three substances from paper PMC3715452.

Chains of the proteins cited; added tags and fusions are not shown. Residues count along the entry.
UniProt Q9QUK6, residues 26-835: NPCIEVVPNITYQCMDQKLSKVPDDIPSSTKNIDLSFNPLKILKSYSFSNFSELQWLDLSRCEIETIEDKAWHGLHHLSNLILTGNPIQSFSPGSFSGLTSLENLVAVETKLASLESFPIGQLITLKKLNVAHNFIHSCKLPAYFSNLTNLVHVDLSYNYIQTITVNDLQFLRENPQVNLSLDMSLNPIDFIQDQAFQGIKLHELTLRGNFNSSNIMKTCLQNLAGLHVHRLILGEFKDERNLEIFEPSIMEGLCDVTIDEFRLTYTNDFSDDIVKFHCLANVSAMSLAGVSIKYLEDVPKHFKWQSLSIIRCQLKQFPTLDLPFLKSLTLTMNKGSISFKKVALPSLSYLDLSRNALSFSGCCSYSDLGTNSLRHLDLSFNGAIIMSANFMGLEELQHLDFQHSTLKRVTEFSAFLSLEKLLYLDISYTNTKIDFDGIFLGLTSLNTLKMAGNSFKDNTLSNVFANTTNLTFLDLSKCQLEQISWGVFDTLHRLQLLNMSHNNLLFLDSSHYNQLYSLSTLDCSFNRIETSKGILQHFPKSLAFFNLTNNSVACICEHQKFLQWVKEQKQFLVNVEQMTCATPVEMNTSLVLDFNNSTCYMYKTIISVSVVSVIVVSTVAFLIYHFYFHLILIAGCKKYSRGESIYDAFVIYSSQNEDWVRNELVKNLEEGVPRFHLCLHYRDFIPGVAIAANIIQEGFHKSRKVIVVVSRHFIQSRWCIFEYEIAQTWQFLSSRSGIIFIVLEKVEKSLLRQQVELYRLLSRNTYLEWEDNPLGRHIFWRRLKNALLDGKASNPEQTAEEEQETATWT
UniProt Q9QUN7, residues 25-784: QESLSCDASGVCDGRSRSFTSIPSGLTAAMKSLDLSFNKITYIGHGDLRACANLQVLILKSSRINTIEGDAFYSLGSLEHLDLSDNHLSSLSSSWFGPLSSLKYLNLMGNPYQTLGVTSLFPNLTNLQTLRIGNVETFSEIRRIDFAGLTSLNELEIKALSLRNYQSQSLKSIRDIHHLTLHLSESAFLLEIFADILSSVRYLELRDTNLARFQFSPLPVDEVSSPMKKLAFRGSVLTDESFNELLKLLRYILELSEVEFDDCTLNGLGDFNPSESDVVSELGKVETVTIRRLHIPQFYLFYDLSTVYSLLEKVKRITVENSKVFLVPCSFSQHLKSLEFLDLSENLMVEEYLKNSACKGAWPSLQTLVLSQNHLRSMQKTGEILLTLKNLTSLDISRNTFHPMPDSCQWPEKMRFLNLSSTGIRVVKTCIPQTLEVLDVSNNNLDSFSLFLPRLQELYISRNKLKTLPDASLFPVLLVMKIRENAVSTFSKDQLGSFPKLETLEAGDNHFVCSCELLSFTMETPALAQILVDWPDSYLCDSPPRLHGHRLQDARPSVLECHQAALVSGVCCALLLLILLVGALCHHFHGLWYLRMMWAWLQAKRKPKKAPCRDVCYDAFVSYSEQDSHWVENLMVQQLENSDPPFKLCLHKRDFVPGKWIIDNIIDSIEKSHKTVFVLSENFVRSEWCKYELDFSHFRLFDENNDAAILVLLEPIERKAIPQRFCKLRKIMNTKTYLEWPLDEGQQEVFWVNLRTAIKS
UniProt P08113, residues 22-802: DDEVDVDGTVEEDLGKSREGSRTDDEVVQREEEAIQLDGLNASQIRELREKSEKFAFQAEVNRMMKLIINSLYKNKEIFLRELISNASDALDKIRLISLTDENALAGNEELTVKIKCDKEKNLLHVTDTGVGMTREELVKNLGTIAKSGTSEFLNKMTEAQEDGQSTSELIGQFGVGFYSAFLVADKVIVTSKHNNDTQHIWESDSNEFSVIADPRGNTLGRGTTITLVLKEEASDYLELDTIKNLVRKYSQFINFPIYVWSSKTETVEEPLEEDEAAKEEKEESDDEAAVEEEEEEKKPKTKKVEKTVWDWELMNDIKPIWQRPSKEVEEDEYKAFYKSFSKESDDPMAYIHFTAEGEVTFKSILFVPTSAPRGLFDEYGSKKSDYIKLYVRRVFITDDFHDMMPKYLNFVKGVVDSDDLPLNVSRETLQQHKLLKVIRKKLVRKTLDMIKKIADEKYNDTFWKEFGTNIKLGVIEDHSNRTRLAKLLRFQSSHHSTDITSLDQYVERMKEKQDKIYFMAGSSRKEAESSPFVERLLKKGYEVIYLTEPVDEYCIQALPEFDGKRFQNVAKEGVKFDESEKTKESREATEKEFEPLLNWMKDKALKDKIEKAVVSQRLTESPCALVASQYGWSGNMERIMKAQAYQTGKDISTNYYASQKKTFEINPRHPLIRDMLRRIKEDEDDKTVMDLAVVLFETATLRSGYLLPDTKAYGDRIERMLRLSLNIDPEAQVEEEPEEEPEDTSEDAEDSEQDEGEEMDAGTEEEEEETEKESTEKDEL

Test [1] has as its target TLR4 (mouse (endogenous in mouse Tregs)) (UniProt Q9QUK6). Put plainly: flow cytometry on cells; freshly isolated Tregs incubated with FITC-gp96, with or without excess unlabeled gp96, MSA, TLR2 Ab or TLR4 Ab; only the binder purified.
Test [2] has as its target TLR2 (mouse (endogenous in mouse Tregs)) (UniProt Q9QUN7). The description is as above.
A further test concerns the target GST-fused gp96 (UniProt P08113). Put plainly: pull-down; GST-gp96 or GST mixed with Treg lysates overnight at 4 C, Glutathione Sepharose 2 h, immunoblotting of TLR2 and TLR4; only the target purified.
Test [3] has as its target TLR4 (mouse (endogenous in mouse Tregs)) (UniProt Q9QUK6). Description: co-IP; TLR Abs or control Ab added to Treg lysates overnight at 4 C, protein G beads 2 h, gp96 detected by Western blotting.
The target in test [4] is TLR2 (mouse (endogenous in mouse Tregs)) (UniProt Q9QUN7). The test is described as above.

Results are given in words; binding and its absence hold for the method and conditions named. For some assays here: Binding seen in cells or lysates may run through a third protein. Some entries that bind do so weakly or less than the wild type.

With “FITC-labeled gp96 (from UniProt P08113 22-802)”, the binding entry in test [1] and in test [2] was “binds” throughout.

Turning to “TLR4 (from UniProt Q9QUK6 26-835) (receptor)”, the binding result with GST-fused gp96 is reported as “binds”.

For the substance “gp96 (in Treg lysates) (from UniProt P08113 22-802)”, the binding entry in test [3] and in test [4] was “binds” in each case.
